# Experimental data: patent US20100255000A1
# The chains behind the UniProt entries cited, without tags or fusion partners. Where a name states a change or a piece, a line headed by the entry shows the natural chain unless it says otherwise.
# UniProt P00742: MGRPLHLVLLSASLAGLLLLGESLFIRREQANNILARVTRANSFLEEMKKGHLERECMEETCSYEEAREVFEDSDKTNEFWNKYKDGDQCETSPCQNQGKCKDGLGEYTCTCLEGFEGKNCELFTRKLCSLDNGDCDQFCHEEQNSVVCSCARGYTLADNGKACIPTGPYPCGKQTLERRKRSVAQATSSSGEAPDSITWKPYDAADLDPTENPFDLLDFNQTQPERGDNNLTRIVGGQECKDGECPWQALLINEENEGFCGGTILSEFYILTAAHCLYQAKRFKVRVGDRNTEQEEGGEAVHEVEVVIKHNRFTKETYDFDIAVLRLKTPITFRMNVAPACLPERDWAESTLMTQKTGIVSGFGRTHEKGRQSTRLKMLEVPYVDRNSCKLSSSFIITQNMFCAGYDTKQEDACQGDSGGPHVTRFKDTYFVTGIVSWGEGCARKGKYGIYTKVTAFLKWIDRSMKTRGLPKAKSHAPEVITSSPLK
# These are yes or no findings as the source states them, for the method shown. Some entries that bind do so weakly or less than the wild type.
# B1: soybean trypsin inhibitor-agarose (STI-Agarose, Sigma Catalog #T0637) (protein, UniProt P01070 25-205, looked up)
# chain: DFVLDNEGNPLENGGTYYILSDITAFGGIRAAPTGNERCPLTVVQSRNELDKGIGTIISSPYRIRFIAEGHPLSLKFDSFAVIMLCVGIPTEWSVVEDLPEGPAVKIGENKDAMDGWFRLERVSDDEFNNYKLVFCPQQAEDDKCGDIGISIDHDDGTRRLVVSKNKPLVVQFQKLDKESL
# modifications: coupled to agarose
# Target: r-Antidote (recombinant antidote; human factor Xa triple mutant after removal of the -RKRRKR- linker, SEQ ID NO. 13) (human) (UniProt P00742)
# Test: affinity chromatography on immobilised soybean trypsin inhibitor
binder,measurement,value
B1,binding,binds
